# Laboratory results: article PMC7819943, “Rice protein-binding microarrays: a tool to detect cis-acting elements near promoter regions in rice”
# Sequences of proteins named here, by UniProt entry; tags and fusion partners are left off.
# UniProt Q0JBA9, entry or part of it: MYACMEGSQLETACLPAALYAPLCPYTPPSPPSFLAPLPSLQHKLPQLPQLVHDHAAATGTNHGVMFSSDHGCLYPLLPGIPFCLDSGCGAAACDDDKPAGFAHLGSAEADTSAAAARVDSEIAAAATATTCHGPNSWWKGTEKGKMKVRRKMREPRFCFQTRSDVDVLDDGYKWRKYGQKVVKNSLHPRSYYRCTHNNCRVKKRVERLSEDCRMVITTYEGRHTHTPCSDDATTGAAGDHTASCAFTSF
# Some of the results follow.
# Biological target: OsWRKY34 (Oryza sativa, UniProt Q0JBA9 1-250)
# Assay: protein-binding microarray (RPBM); PBS, 2% BSA, 51.3 ng/ul salmon testes DNA, 50 uM zinc acetate, 200 nM TF, 25 C, 1 h; high values mean tight binding
# Settings: protein: recombinant; tags: N-terminal polyhistidine and DsRed monomer fusion (pET32a); label: CyDye5-dUTP incorporated in the synthesized complementary strand; 3' TTTTT single-stranded linker to array surface; dsDNA, one strand shown
# In short: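 A custom Agilent array was converted to double-stranded form by primer extension with Cy5-dUTP and blocked with 2% BSA. Protein at 200 nM in PBS with 2% BSA, salmon testes DNA and 50 µM zinc acetate was applied for 1 h at 25 °C, followed by washing. The proteins were polyhistidine–DsRed N-terminal fusions of transcription factors, expressed in E. coli BL21-CodonPlus and Ni–NTA-purified. The binding signal is per-feature fluorescence intensity (arbitrary units) from an Axon 4000B scanner.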
row,Sequence,binding signal
1,TCCAACGCGCCTCTTCACTTCGTCCTCTGCCACGTCTTGTCGGAGTCACCTAGTGCAG,13100 fluorescence intensity (a.u.)
2,TTCAGACTTGTGAATTTTGGTCCAATTTGTCGTGTCAATTCGGAGTCACCTAGTGCAG,9740 fluorescence intensity (a.u.)
3,GGGGCCGGGTGTACTGTTTGGTGGTACTGCAGCCGTCGAGCGGAGTCACCTAGTGCAG,10400 fluorescence intensity (a.u.)
4,TAGATCCCTACTCATTTCTTATTATTTTAATTTCCTTATGCGGAGTCACCTAGTGCAG,8700 fluorescence intensity (a.u.)
5,GCAGATCACAGATCCGGTTCAATCTTCACCGTGTTTATTACGGAGTCACCTAGTGCAG,8760 fluorescence intensity (a.u.)
6,TAATAGATGACGCCGTTGACTTTTTCTCACATGTTTGACCCGGAGTCACCTAGTGCAG,33000 fluorescence intensity (a.u.)
7,GCATTTGCTAGAACAATCACTACTCGCGTCGACCAGATCTCGGAGTCACCTAGTGCAG,9480 fluorescence intensity (a.u.)
8,GGCCTCTCGTCTCGCCTCGACTCGCCGGGATTTCCCGAACCGGAGTCACCTAGTGCAG,8270 fluorescence intensity (a.u.)
9,CGTCTATTTTTTTTATTCAACGGTAGTTTCCAGGTTTACACGGAGTCACCTAGTGCAG,9990 fluorescence intensity (a.u.)
10,TCATTATAGAAGAGATTCTGCAGTATCTGGTTGGTTTCCTCGGAGTCACCTAGTGCAG,8240 fluorescence intensity (a.u.)
11,CATCTCAATTTGGATCTTTGGTCCCCACTTTGCATGCCATCGGAGTCACCTAGTGCAG,8760 fluorescence intensity (a.u.)
12,CATATATTTCACTCTTCTTTTAATCATTACAACTTCTTCTCGGAGTCACCTAGTGCAG,8810 fluorescence intensity (a.u.)
13,GTTAGGGTTTTTTTTATTTTTCGATTTTTTTTGTGTTTTTCGGAGTCACCTAGTGCAG,12000 fluorescence intensity (a.u.)
14,TCTGTTGCCTCTCTGCTTTCTCGTGCAGCCCGTCTCGTACCGGAGTCACCTAGTGCAG,8960 fluorescence intensity (a.u.)
15,TCTTCTTTTTCACCCAATTACCTATATGCTTAGCTCATCACGGAGTCACCTAGTGCAG,8320 fluorescence intensity (a.u.)
16,GTCAATGGCCTGCTCGGTGCTCTCTCTTGCGTCGATGGCCCGGAGTCACCTAGTGCAG,9190 fluorescence intensity (a.u.)
17,TTCACCACGTGTCAGCCTCTGATTGGCCGCTCCTCTTTGCCGGAGTCACCTAGTGCAG,8790 fluorescence intensity (a.u.)
18,TATTTCGTACGTGCTTATCTTTTTCTTGATTAATTAAATACGGAGTCACCTAGTGCAG,8380 fluorescence intensity (a.u.)
19,TTTCTGCTTGCCTCGCTCTCTCGCATCGTCGCATTGGTACCGGAGTCACCTAGTGCAG,11100 fluorescence intensity (a.u.)
20,ATCCCTTTTTTCCCCTGGATTTTAACCGTGTGCAATTTGGCGGAGTCACCTAGTGCAG,8600 fluorescence intensity (a.u.)
21,CTTTGCTACTCGCTATATATACGCTCTCCACCCGTCTCGCCGGAGTCACCTAGTGCAG,9370 fluorescence intensity (a.u.)

# Reprinted at random: two records from the list.
row,Sequence,binding signal
20,ATCCCTTTTTTCCCCTGGATTTTAACCGTGTGCAATTTGGCGGAGTCACCTAGTGCAG,8600 fluorescence intensity (a.u.)
9,CGTCTATTTTTTTTATTCAACGGTAGTTTCCAGGTTTACACGGAGTCACCTAGTGCAG,9990 fluorescence intensity (a.u.)

# Continuation:

row,Sequence,binding signal
1,GTCTACAACCACGCGCCGCCACCGTCCTTACCGCCGCCCGCGGAGTCACCTAGTGCAG,10300 fluorescence intensity (a.u.)
2,TTTGTACCCTTAGTCATCGTGTTCATCTGAGTTGTTTCTGCGGAGTCACCTAGTGCAG,8340 fluorescence intensity (a.u.)
3,ATCCCAGCAACTTGTATCAATTAAATGCTTTGCTTAGTCTCGGAGTCACCTAGTGCAG,8580 fluorescence intensity (a.u.)
4,GTTTTTACCTCCATAATGGAACTACTTTTAATGTCATGACCGGAGTCACCTAGTGCAG,9320 fluorescence intensity (a.u.)
5,CTCTCCCATTCTGGCCCAACTATCCCGCTCCGGCCTAATACGGAGTCACCTAGTGCAG,8430 fluorescence intensity (a.u.)
6,AGTAATGATTTCTTCTTTTAAGATGCTCTTTGCCATGCTACGGAGTCACCTAGTGCAG,8240 fluorescence intensity (a.u.)
7,CAGCCAGTACACACCCCACAATGCCCATCTCCTATATATACGGAGTCACCTAGTGCAG,8050 fluorescence intensity (a.u.)
8,CAATTTAATCAAGTGATATTTCACATGTTGTTTTTCTTCACGGAGTCACCTAGTGCAG,8870 fluorescence intensity (a.u.)
9,ACTTTTAACTAATGATCATAGTAACGTTAATTGTTATGCACGGAGTCACCTAGTGCAG,8270 fluorescence intensity (a.u.)
10,CCACCTCCACCGTCTCGTCTCCTCCCGCCAGGCCAAAAACCGGAGTCACCTAGTGCAG,8810 fluorescence intensity (a.u.)
11,GTTGCAACTTGTATAATTTAAATTTGACCTTGCATTTTGTCGGAGTCACCTAGTGCAG,9040 fluorescence intensity (a.u.)
12,AATATCAAACCTACTCATAACTTTTTGCAACAGTCTCATTCGGAGTCACCTAGTGCAG,8440 fluorescence intensity (a.u.)
13,GCGTGTGTTCTTGTGCTGGATTGTGGAGTTCTTGATCCCTCGGAGTCACCTAGTGCAG,10000 fluorescence intensity (a.u.)
14,ACGCTTACAACATGCGCATACACGCACACCCAATCCTATGCGGAGTCACCTAGTGCAG,11000 fluorescence intensity (a.u.)
15,CGCCGCCTTCAGCCACCGCCGCCCCAGCGCCGCGCGCCCCCGGAGTCACCTAGTGCAG,8440 fluorescence intensity (a.u.)
16,GCCGGCCGGCCTTCTTTTGCATTTCGTTCATACTTCTTTACGGAGTCACCTAGTGCAG,12000 fluorescence intensity (a.u.)
17,TGGCTGCCGGACTTGGGAGGGACACTGGGTTGGTTGTGGGCGGAGTCACCTAGTGCAG,9440 fluorescence intensity (a.u.)
18,CCGTTTCCTGTCATCTTCTCTGACGAACCTGCAGCGGTGACGGAGTCACCTAGTGCAG,8190 fluorescence intensity (a.u.)
19,CTTCGGCAAATCCATATTCCACACCACATTGCTGCCATATCGGAGTCACCTAGTGCAG,13700 fluorescence intensity (a.u.)
20,TTGTGCTGCTCGTGTTTGCGTTCATTCAGGTCAAAAGATGCGGAGTCACCTAGTGCAG,8090 fluorescence intensity (a.u.)
21,TTTGATCCTGTTATCAATTTGCATACATTTCATTATTTTACGGAGTCACCTAGTGCAG,9700 fluorescence intensity (a.u.)
